Literature values, collected in patent publication US7645735B2, “Anti-angiogenic peptides for treating or preventing endometriosis” (Children's Medical Center Corporation, priority 2003, dated 2010).

Details: cited from earlier work

B1: human endostatin (EntreMed): recombinant human endostatin, gift from EntreMed Corporation (protein, listed as Homo sapiens)
chain: HSHRDFQPVLHLVALNSPLSGGMRGIRGADFQCFQQARAVGLAGTFRAFLSSRLQDLYSIVRRADRAAVPIVNLKDELLFPSWEALFSGSEGPLKPGARIFSFNGKDVLTHPTWPQKSVWHGSDPNGRRLTESYCETWRTEAPSATGQAYSLLGGRLLGQSAASCHHAYIVLCIENSFMTASK
atoms of zinc bound per molecule of endostatin (Sim et al. (1999)): 10 atoms of zinc per molecule | zinc per endostatin molecule (crystal structure studies, Ding et al. (1998)): 1 atom of zinc/endostatin molecule
